# Results from PubChem BioAssay AID624297 (National Center for Advancing Translational Sciences (NCATS), 2012).
# Where “and” joins values, the source holds several entries; their conditions need not be identical. Identical values can stand only once. The whole screen tested about 340,000 compounds, of which about 6,200 (1.8%) were called active. Inconclusive means that the source gave no clear call. Such entries were picked first, then a sample of the others. Calls come from the whole dose curve; as a rule, active = well fitted activation curve with a large enough effect; inconclusive = small, poorly fitted or top-dose-only effect; inactive = no such curve, though single readings can be large or run the other way. Potencies of inconclusive entries are doubtful fits and often do not repeat.
# Assay: A quantitative high throughput screen for small molecules that induce DNA re-replication in SW480 colon adenocarcinoma cells. For re-replication activation: % of control where 0% means no effect. Note: nearly all actives have a fitted effect of over 55% in size.
# Details: Hoechst DNA content imaging, 48 h; re-replication activation: at 46.1 µM (top of the series) unless noted
# In short: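 Per well, 250 cells were exposed to pinned compound for 48 hr. Nuclear DNA was visualised with Hoechst (40 min, 37 C) and total object intensity recorded by fluorescence scanning.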
# Potency is the fitted concentration of half-maximal effect.
SMILES,Potency,re-replication activation
Cc1cccc(N2C(=O)CC(N3CCN(c4ccc(Cl)cc4)CC3)C2=O)c1 (stereo not given),"inconclusive: 18.4 µM [activator, single point]",
COc1cc(/C=N/NC(=O)Nc2ccccc2)ccc1OCCOc1ccccc1C,"inconclusive: 13 µM [activator, partial curve, poor fit]",
COc1ccccc1-n1ccnc(SCC(=O)NCc2ccccc2)c1=O,inactive,
CN1C(=S)SC(C)(C)C1/[N+]([O-])=C/c1cccnc1 (stereo not given),inactive,
O=C(NCCCN1CCOCC1)c1ccc(CS(=O)(=O)Cc2ccccc2Cl)o1,"inconclusive: 2.91 µM [activator, single point]",
O=C(Cn1ncc2c3ccccc3n(Cc3ccc(F)cc3)c2c1=O)N1CCN(c2ncccn2)CC1,"inconclusive: 32.6 µM [activator, partial curve, poor fit]",
CCn1nc(NS(=O)(=O)c2ccc(F)cc2)c2cc3cccc(C)c3nc21,"inconclusive: 29.1 µM [activator, single point]",
Cc1ccsc1/C=N\NC(=O)Cn1nnc2ccccc21,active: 18.4 µM,
COc1cccc(CNc2ccc3[nH]c(=O)[nH]c3c2)c1OCc1ccccc1Cl,,inconclusive: -25.4% [activator]
CC(Sc1nnc(C2CC2)n1C1CC1)C(=O)N(C)C1(C#N)CCCCC1 (stereo not given),"inconclusive: 29.1 µM [activator, single point]",
CCNC(=S)N(Cc1ccccc1)Cc1nc2ccccc2c(=O)[nH]1,inactive,
CCC(=O)NC1=C(C#N)C2(CCCC2)Cc2ccccc21,inactive,
COc1cc(/C=N\Nc2ccc([N+](=O)[O-])cc2)ccc1OCC(=O)Nc1ccc(C)c(C)c1,active: 20.6 µM,
O=c1[nH]c2ccccc2n1Cc1ccc(Cl)cc1,inactive,
CC(C)(C)C(=O)Nc1ccc(S(=O)(=O)N2CCC(c3nc4ccccc4[nH]3)CC2)cc1,inactive,
O=S(=O)(c1ccc(Oc2ccc(Br)cc2F)nc1)N1CCCCC1,,inconclusive: 64% [activator]
CCOC(=O)c1ncn2c1[C@@H]1CCNC1C(=O)c1cc(OC)ccc1-2 (stereo not given in full),"inconclusive: 0.231 µM [activator, single point]",
CCOC(=O)c1ccc(-c2ccc(/C=C(\C#N)C(=O)NCC3CCCO3)o2)cc1 (stereo not given),inactive,
Cc1ccc(C(=O)NC2CCCc3ccccc32)cc1[N+](=O)[O-] (stereo not given),"inconclusive: 29.1 µM [activator, single point]",
CC1CCc2c(sc3ncn(N)c(=N)c23)C1 (stereo not given),"inconclusive: 13 µM [activator, partial curve]",
O=C(Nc1cccc(-c2nc3ncccc3o2)c1)c1sc2ccccc2c1Cl,"inconclusive: 20.6 µM [activator, single point]",
CNC(=S)NN=C(C)c1ccc(OC)cc1O,"inconclusive: 0.259 µM [activator, full curve, poor fit]",
CN(C)c1ccc(/C=C/c2nc3ccccc3c(=O)n2CCO)cc1,"inconclusive: 20.6 µM [activator, single point]",
CC(OC(=O)c1ccc(NC(=O)CC#N)cc1)C(=O)NC(c1ccccc1)c1ccccc1 (stereo not given),inactive,

SMILES,Potency,re-replication activation
Brc1ccc(CSc2nnc(-c3ccccn3)n2Cc2ccco2)cc1,"inconclusive: 29.1 µM [activator, single point]",
C=CCNC(=O)c1ccc(CSc2nc3ccccc3s2)cc1,inactive,
COC(=O)c1sccc1NC(=O)/C=C/c1ccc(Cl)cc1,"inconclusive: 25.9 µM [activator, partial curve, poor fit]",
CN(Cc1ccccc1)C(=O)COC(=O)CCNC(=O)c1ccccc1Cl,inactive,
O=C(c1cc([N+](=O)[O-])ccc1Cl)N1CCc2ccccc21,inactive,
Cc1oc(-c2ccccc2F)nc1CS(=O)(=O)CC(=O)N1CCN(Cc2ccccc2)CC1,"inconclusive: 32.6 µM [activator, partial curve, poor fit]",
Cc1cc(C)nc(NS(=O)(=O)c2ccccc2)n1,"inconclusive: 29.1 µM [activator, single point]",
COc1ccnc(Oc2ccccc2)c1-c1ncn[nH]1,"inconclusive: 1.84 µM [activator, partial curve, poor fit]",
Cc1c(C)c2c(OCC(=O)NCC(O)c3ccccc3)cc3c(c2oc1=O)CCC(C)(C)O3 (stereo not given),"inconclusive: 2.31 µM [activator, partial curve, poor fit]",
Cc1cc(/C=C2\C(=N)N3N=C(S(C)(=O)=O)SC3=NC2=O)c(C)n1Cc1ccccc1,"inconclusive: 18.4 µM [activator, single point]",
O=C(CCN1CCN(c2ccc([N+](=O)[O-])cc2)CC1)c1ccc(Cl)cc1,"inconclusive: 23.1 µM [activator, single point]",
Cn1cccc1Cc1nnc(SCC(=O)Nc2nccs2)n1C,"inconclusive: 3.26 µM [activator, full curve, poor fit]",
CN1CCN(C(=O)c2cc3nc(-c4ccccc4)cc(-c4ccccc4)n3n2)CC1,"inconclusive: 20.6 µM [activator, single point]",
Cc1cc(C(=O)N2CC=C(c3ccccc3)CC2)c2ccccc2n1,active: 1.3 µM,
CCOc1ccc(NS(=O)(=O)c2ccc(C(=O)NCC(c3ccco3)N(C)C)cc2)cc1 (stereo not given),inactive,
CC(Oc1ccc(C(C)(C)C)cc1)C(=O)NC1CC(C)(C)NC(C)(C)C1 (stereo not given),"inconclusive: 29.1 µM [activator, partial curve, poor fit]",
COc1ccccc1S(=O)(=O)Cc1ccc(C(=O)N2CCN(c3ccc(C)cc3)C(C)C2)o1 (stereo not given),"inconclusive: 29.1 µM [activator, single point]",
S=C(Nc1ccccc1Cl)N1CCCC1,inactive,
Clc1ccccc1-c1ncnc2ccc(Br)cc12,"inconclusive: 3.66 µM [activator, partial curve, poor fit]",
O=C(CCOc1ccccc1)N1CCN(S(=O)(=O)c2cccs2)CC1,inactive,
O=C(N/N=C/c1cccc(O)c1)c1ccc(NC(=O)C2CCCCC2)cc1,inactive,
CCOC(=O)C=C(C(=O)OCC)C(=O)OCC,inactive,
COc1cccc(NC(=O)CCCCCN2C(=O)[C@@H]3Cc4ccccc4CN3C2=O)c1,"inconclusive: 0.651 µM [activator, full curve]",
Cc1nc(SCc2nc3c([N+](=O)[O-])cccc3[nH]2)c2oc3ccccc3c2n1,"inconclusive: 0.731 µM [activator, full curve, poor fit]",

SMILES,Potency,re-replication activation
COc1nc(-c2cccs2)cc(-c2ccc(C)cc2)c1C#N,active: 3.98 µM,
C#CCNC(=O)C1=C[C@H](c2ccc(C(F)(F)F)cc2)C[C@H](OCc2ccc(CO)cc2)O1,"inconclusive: 0.0366 µM [activator, full curve, poor fit]",
CCCCCCc1ccc(N2C[C@H](CCCCC)[C@@H](CC(=O)NCc3ccc(OC)cc3)C2=O)cc1,inactive,
Cc1cc2nc3ccc(=[N+](C)C)cc-3sc2cc1N,"inconclusive: 0.116 µM [activator, full curve, poor fit]",
O=C(c1cc(COc2cccc(C(F)(F)F)c2)on1)N1CCC(c2ccncc2)CC1,"inconclusive: 32.6 µM [activator, single point]",
O=c1[nH]c2cc3c(cc2cc1CN(CCc1ccccc1)C(=S)NCCCN1CCOCC1)OCCO3,"inconclusive: 20.6 µM [activator, single point]",
CCOC(=O)c1ccccc1Nc1cn(C(C)=O)c2ccccc12,"inconclusive: 7.31 µM [activator, partial curve, poor fit]",
CCN(CC)CCNC(=O)c1ccc(NC(=O)c2c(C)nn(-c3ccc(F)cc3)c2Cl)cc1,"inconclusive: 29.1 µM [activator, single point]",
Cc1ccc(NC(=O)CN2CCN(c3ccccn3)CC2)cc1S(=O)(=O)N(C)C,"inconclusive: 6.51 µM [activator, single point]",
Cc1coc(C)c1C(=O)CC1(O)C(=O)N(CCc2ccccc2)c2ccccc21 (stereo not given),"inconclusive: 29.1 µM [activator, single point]",
CCOC(=O)C1CN(S(=O)(=O)c2cc(OC)ccc2OC)C1,inactive,
COc1ccc(C(=O)NCC(c2ccco2)N2CCc3ccccc32)cc1 (stereo not given),"inconclusive: 13 µM [activator, single point]",
CC(C)(C)c1ccc(NC(=O)COC(=O)C2(C)CC2(Cl)Cl)cc1 (stereo not given),"inconclusive: 23.1 µM [activator, single point]",
COc1ccc(C(=O)Nn2c(C)nc3ccccc3c2=O)cc1,inactive,
S=C(NCCCc1ccccc1)NCc1ccccc1,inactive,
C/C(=N\NC(=S)Nc1c(C)cccc1C)c1ccc(OC(F)F)cc1,"inconclusive: 14.6 µM [activator, single point]",
COc1ccccc1N1CCN(C2CCCN(Cc3c(F)cccc3F)C2)CC1 (stereo not given),"inconclusive: 20.6 µM [activator, single point]",
CSc1cccc(NC(=S)Nc2cc(C)ccc2C)c1,inactive,
O=C(CCCN1C(=O)/C(=C/c2cccs2)SC1=S)Nc1cccc(O)c1,"inconclusive: 23.1 µM [activator, single point]",
CC(Oc1ccccc1)C(=O)Nc1nnc(S(=O)(=O)N2CCCCC2)s1 (stereo not given),inactive,
CCN(CC)C(=S)SSC(=S)N(CC)CC,"inconclusive: 750 nM [activator, full curve] and inconclusive: 130 nM [activator, full curve, poor fit]",
COc1ccccc1NC(=O)C(C)OC(=O)/C(=C/c1ccccc1)NC(C)=O (stereo not given),inactive,
